Experimental data from article PMC1964775.
No constants are given. Whether binding was seen depends on the method and setting. In cells and extracts the contact can be indirect. Some entries that bind do so weakly or less than the wild type.

Amino acid sequences for entries named in this document (tags omitted).
UniProt Q94517: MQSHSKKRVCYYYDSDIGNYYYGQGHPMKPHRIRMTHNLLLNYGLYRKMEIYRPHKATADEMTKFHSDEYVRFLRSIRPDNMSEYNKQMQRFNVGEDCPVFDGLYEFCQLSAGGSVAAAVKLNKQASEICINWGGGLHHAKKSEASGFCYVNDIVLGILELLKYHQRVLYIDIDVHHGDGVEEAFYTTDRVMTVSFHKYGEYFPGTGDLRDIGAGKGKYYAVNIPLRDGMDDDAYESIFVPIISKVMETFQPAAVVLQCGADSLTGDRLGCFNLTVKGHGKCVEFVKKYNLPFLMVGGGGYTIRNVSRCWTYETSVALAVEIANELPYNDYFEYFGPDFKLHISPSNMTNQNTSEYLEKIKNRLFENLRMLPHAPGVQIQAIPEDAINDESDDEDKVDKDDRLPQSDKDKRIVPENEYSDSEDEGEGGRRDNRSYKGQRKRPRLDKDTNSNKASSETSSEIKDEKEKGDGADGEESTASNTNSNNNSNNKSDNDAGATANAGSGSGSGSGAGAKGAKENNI

Key:
[1] = biological target: T1, Dsp1 (dorsal switch protein) (Drosophila (endogenous in SL2 cells)) (UniProt Q24537); test: co-IP; as the co-IP from LPS/PGN-treated SL2 nuclear extracts, with a high concentration of ethidium bromide added to the extracts; unpublished data
T1 sequence: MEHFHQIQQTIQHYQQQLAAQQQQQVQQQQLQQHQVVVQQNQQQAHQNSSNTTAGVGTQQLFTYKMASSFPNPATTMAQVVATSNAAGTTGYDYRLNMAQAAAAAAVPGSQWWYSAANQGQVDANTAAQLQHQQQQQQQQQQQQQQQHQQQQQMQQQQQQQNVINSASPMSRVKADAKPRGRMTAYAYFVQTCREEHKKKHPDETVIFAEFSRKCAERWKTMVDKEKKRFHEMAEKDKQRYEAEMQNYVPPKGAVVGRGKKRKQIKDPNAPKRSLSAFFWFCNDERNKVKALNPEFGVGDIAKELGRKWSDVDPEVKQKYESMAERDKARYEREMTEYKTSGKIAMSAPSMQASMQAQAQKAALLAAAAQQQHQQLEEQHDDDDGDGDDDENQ

[2] = biological target: T2, Jra (Drosophila (endogenous in SL2 cells)) (UniProt P18289); test: as above
T2 sequence: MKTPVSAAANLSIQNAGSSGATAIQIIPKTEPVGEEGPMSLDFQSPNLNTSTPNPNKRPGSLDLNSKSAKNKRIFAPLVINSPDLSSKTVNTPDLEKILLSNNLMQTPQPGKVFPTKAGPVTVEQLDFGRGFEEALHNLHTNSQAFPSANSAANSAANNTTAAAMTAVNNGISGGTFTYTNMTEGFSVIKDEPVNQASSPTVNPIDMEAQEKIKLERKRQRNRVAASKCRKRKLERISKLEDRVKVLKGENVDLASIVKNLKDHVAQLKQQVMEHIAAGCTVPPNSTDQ

[3] = biological target: T3, Stat92E (Drosophila (endogenous in SL2 cells)) (UniProt Q24151); test: as above
T3 sequence: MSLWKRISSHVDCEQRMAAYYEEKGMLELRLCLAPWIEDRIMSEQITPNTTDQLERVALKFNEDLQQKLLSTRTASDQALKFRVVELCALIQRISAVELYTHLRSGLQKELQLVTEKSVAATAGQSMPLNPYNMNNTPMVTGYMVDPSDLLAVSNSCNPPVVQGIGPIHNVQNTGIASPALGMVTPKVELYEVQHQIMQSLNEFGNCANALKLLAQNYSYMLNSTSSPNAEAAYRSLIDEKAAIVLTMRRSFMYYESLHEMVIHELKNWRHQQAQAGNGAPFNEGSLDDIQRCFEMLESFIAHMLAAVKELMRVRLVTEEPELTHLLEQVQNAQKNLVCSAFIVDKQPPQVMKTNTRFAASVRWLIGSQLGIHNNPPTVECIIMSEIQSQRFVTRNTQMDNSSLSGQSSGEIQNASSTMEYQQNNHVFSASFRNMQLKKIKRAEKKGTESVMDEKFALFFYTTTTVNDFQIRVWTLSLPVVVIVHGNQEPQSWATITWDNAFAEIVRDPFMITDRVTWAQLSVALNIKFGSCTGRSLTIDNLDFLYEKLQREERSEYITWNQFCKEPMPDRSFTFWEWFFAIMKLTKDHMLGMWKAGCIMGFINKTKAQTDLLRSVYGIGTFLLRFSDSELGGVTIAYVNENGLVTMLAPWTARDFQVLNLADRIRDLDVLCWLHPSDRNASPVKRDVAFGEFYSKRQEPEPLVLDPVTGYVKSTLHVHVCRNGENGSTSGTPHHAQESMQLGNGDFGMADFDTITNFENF

[4] = biological target: T1, Dsp1 (dorsal switch protein) (Drosophila (endogenous in SL2 cells)); test: co-IP; nuclear extracts of SL2 cells treated with LPS/PGN (10 μg/ml for 45 min); 5 μg antibody against endogenous protein, Protein G beads, 4 °C for 1 h; immunoblot of the pellets
[5] = biological target: T2, Jra (Drosophila (endogenous in SL2 cells)); test: as above
[6] = biological target: T3, Stat92E (Drosophila (endogenous in SL2 cells)); test: as above
[7] = biological target: T2, Jra (Drosophila (endogenous in SL2 cells)); test: co-IP; nuclear extracts of SL2 cells without LPS/PGN treatment; antibody against endogenous protein, Protein G beads; immunoblot of the pellets
[8] = biological target: T3, Stat92E (Drosophila (endogenous in SL2 cells)); test: as above

Molecule	binding [1]	binding [2]	binding [3]	binding [4]	binding [5]	binding [6]	binding [7]	binding [8]
dHDAC1 (from UniProt Q94517 1-521) (enzyme)	binds	binds	binds	binds	binds	binds	–	–
Stat92E (protein, UniProt Q24151 1-761) MSLWKRISSHVDCEQRMAAYYEEKGMLELRLCLAPWIEDRIMSEQITPNTTDQLERVALKFNEDLQQKLLSTRTASDQALKFRVVELCALIQRISAVELYTHLRSGLQKELQLVTEKSVAATAGQSMPLNPYNMNNTPMVTGYMVDPSDLLAVSNSCNPPVVQGIGPIHNVQNTGIASPALGMVTPKVELYEVQHQIMQSLNEFGNCANALKLLAQNYSYMLNSTSSPNAEAAYRSLIDEKAAIVLTMRRSFMYYESLHEMVIHELKNWRHQQAQAGNGAPFNEGSLDDIQRCFEMLESFIAHMLAAVKELMRVRLVTEEPELTHLLEQVQNAQKNLVCSAFIVDKQPPQVMKTNTRFAASVRWLIGSQLGIHNNPPTVECIIMSEIQSQRFVTRNTQMDNSSLSGQSSGEIQNASSTMEYQQNNHVFSASFRNMQLKKIKRAEKKGTESVMDEKFALFFYTTTTVNDFQIRVWTLSLPVVVIVHGNQEPQSWATITWDNAFAEIVRDPFMITDRVTWAQLSVALNIKFGSCTGRSLTIDNLDFLYEKLQREERSEYITWNQFCKEPMPDRSFTFWEWFFAIMKLTKDHMLGMWKAGCIMGFINKTKAQTDLLRSVYGIGTFLLRFSDSELGGVTIAYVNENGLVTMLAPWTARDFQVLNLADRIRDLDVLCWLHPSDRNASPVKRDVAFGEFYSKRQEPEPLVLDPVTGYVKSTLHVHVCRNGENGSTSGTPHHAQESMQLGNGDFGMADFDTITNFENF	–	binds	–	binds	binds	–	binds weakly	–
Dsp1 (dorsal switch protein) (protein, UniProt Q24537 1-393) MEHFHQIQQTIQHYQQQLAAQQQQQVQQQQLQQHQVVVQQNQQQAHQNSSNTTAGVGTQQLFTYKMASSFPNPATTMAQVVATSNAAGTTGYDYRLNMAQAAAAAAVPGSQWWYSAANQGQVDANTAAQLQHQQQQQQQQQQQQQQQHQQQQQMQQQQQQQNVINSASPMSRVKADAKPRGRMTAYAYFVQTCREEHKKKHPDETVIFAEFSRKCAERWKTMVDKEKKRFHEMAEKDKQRYEAEMQNYVPPKGAVVGRGKKRKQIKDPNAPKRSLSAFFWFCNDERNKVKALNPEFGVGDIAKELGRKWSDVDPEVKQKYESMAERDKARYEREMTEYKTSGKIAMSAPSMQASMQAQAQKAALLAAAAQQQHQQLEEQHDDDDGDGDDDENQ	–	binds	binds	–	binds	binds	binds weakly	binds weakly
Jra (protein, UniProt P18289 1-289) MKTPVSAAANLSIQNAGSSGATAIQIIPKTEPVGEEGPMSLDFQSPNLNTSTPNPNKRPGSLDLNSKSAKNKRIFAPLVINSPDLSSKTVNTPDLEKILLSNNLMQTPQPGKVFPTKAGPVTVEQLDFGRGFEEALHNLHTNSQAFPSANSAANSAANNTTAAAMTAVNNGISGGTFTYTNMTEGFSVIKDEPVNQASSPTVNPIDMEAQEKIKLERKRQRNRVAASKCRKRKLERISKLEDRVKVLKGENVDLASIVKNLKDHVAQLKQQVMEHIAAGCTVPPNSTDQ	–	–	–	binds	–	binds	–	–
